# PubChem BioAssay (EPA / NIEHS)
# Sequences of proteins named here, by UniProt entry; tags and fusion partners are left off. A change or cut given only in a name is not applied to a line headed by its entry.
# UniProt Q96RI1: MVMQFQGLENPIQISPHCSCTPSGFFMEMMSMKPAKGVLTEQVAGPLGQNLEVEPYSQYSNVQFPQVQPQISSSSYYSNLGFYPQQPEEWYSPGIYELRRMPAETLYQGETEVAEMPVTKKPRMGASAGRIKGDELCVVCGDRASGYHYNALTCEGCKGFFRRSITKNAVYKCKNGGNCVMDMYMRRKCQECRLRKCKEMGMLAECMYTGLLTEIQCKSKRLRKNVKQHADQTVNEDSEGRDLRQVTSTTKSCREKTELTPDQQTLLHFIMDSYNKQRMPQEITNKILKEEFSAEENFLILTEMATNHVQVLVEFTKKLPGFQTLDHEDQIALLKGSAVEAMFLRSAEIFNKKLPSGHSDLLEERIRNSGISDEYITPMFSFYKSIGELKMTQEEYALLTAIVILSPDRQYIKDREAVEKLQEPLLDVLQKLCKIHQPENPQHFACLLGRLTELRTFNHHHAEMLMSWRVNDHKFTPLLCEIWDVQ
# The inconclusive results got no clear call from the source; some entries with a clear call stand among them for comparison. Where the call is inconclusive, the potency comes from a doubtful curve fit. Active and inactive are the calls of the source. The calls were made as follows: active = hit-call score of the fitted dose curve at least 0.9, where 1 is the maximum; inconclusive = response in the unintended direction; inactive = score below 0.9.
# Target: Bile acid receptor (Homo sapiens) (UniProt Q96RI1)
# Assay: OT_FXR_FXRSRC1_0480: Odyssey Thera (OT) 8-hour HEK293T Protein-Complementation Assay for Farnesoid X receptor/SRC-1 Co-activator (AID 2283383)
# In short: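 Fluorescence intensity read-out, 8 h post-dose, HEK293T protein-fragment complementation; FXR bait and SRC-1 prey each linked to reporter fragments. Activity scored as signal increase over DMSO negative control.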
Structure (SMILES),AC50,outcome
C=C(C)C(=O)[O][Sn]([CH2]CCC)([CH2]CCC)[CH2]CCC,inconclusive: 2.22 µM,–
CC(C)(c1ccccc1)c1ccc(O)c(C(C)(C)c2ccccc2)c1,inconclusive: 86 µM,–
CC(c1ccc(O)cc1)(c1ccc(O)cc1)c1ccc(O)cc1,inconclusive: 90.6 µM,–
CCN1CCC2(CC1)COc1cc3c(cc12)N(C(=O)c1ccc(-c2ccc(-c4nnc(C)o4)cc2C)cc1)CC3,inconclusive: 21.7 µM,–
O=S1OC[C@@H]2[C@H](CO1)[C@]1(Cl)C(Cl)=C(Cl)[C@@]2(Cl)C1(Cl)Cl (some centres not stated),active: 43.3 µM,–
CCCN(CCC)c1c([N+](=O)[O-])cc(S(N)(=O)=O)cc1[N+](=O)[O-],inconclusive: 88.5 µM,–
CCCCCCCCn1sccc1=O,inconclusive: 25.7 µM,–
CC1(C)CN=C(NN=C(/C=C/c2ccc(C(F)(F)F)cc2)/C=C/c2ccc(C(F)(F)F)cc2)NC1,inconclusive: 90.7 µM,–
COc1nn(CSP(=S)(OC)OC)c(=O)s1,–,inactive
O=C(Cc1ccccc1)c1ccccc1,–,inactive
CNC(=O)Oc1cccc2c1OC(C)(C)O2,inconclusive: 11 µM,–
CCCCCCCCCC[N+](C)(C)CCCCCCCCCC,–,inactive

# Copied from above, 2 compounds:
Structure (SMILES),AC50,outcome
CC1(C)CN=C(NN=C(/C=C/c2ccc(C(F)(F)F)cc2)/C=C/c2ccc(C(F)(F)F)cc2)NC1,inconclusive: 90.7 µM,–
COc1nn(CSP(=S)(OC)OC)c(=O)s1,–,inactive
